Data taken from patent publication US7109244B2, “Compositions and methods comprising long-chain, straight-chain 2-amino-3-hydroxyalkanes” (priority 1997, dated 2006).
Like-named read-outs stand apart in the source and are kept apart here. Some results were stated once for a whole list of compounds, not compound by compound.

System: L1210 murine lymphocytic leukemia cells
Experiment: L1210 cytotoxicity assay (inhibition of growth)
Assay type: cell-based
Method: The morphological effect was usually measured 30–35 h after the start of the assay and again about 24 h later, while the cytotoxicity was determined when the number of cells in the controls reached approximately 8000, usually in 3 days after the assay was begun. It should be noted that the pointed cells were live cells and that they were counted as such for the cytotoxicity reading. […] All morphologically-changed cells were counted in the pointed cell percentage.
Cytotoxicity assays against L1210 murine lymphocytic leukemia cells were performed by dissolving the samples in methanol and/or hexane were applied to the dry assay wells and the solvent was allowed to evaporate. Cells (1000) were added in minimum essential medium (MEM, 1 ml) and incubated 37° C. Inhibition of growth was recorded as the estimated percentage of living cells in sample wells versus that in control wells.

Row | Structure (SMILES) | L1210 cytotoxicity (in words) | L1210 cytotoxicity (in words) (listed as Compound 1)
1 | CCCCCCCCCCCCCCCCCC(O)C(C)N (stereo not drawn) [Spisulosine 313] | unique cytotoxicity | 
2 | CCCCCCCCCCCCCCCCC(O)C(C)N (stereo not drawn) [Spisulosine 299] | unique cytotoxicity | 
3 | CCCCCCCCCCCCCCC[C@@H](O)[C@H](C)N [Spisulosine 285, (2S,3R)-2-Amino-3-octadecanol] |  | unique cytotoxicity
